The list shows only some results of the screen, not a fair sample: it gathers tests that were run many times, whatever their T/C, doses with no T/C, and many T/C values between a quarter and a half above the control. Other doses and runs of a compound stand elsewhere. T/C gives the treated animals as a percentage of the vehicle group. Some doses have a count of surviving animals in place of a T/C: the source holds a T/C of zero for them, seemingly a mark for toxic or unscored doses. Some survivor counts are full or nearly so, which does not show that the dose was tolerated: survival well below the control is almost never listed, so the zero probably covers shortened survival too. Counts of survivors are from the toxicity check (mostly the fifth day) where no day follows; animals may have died later. Schedule codes are those of the source, taken here to give the interval after Q, in days (D) or hours (H), and the number of doses after X. Some schedules carry Z or #; the key to these is not given. For survival time, this PubChem deposit counts one and a half times the control or more as active, and values a quarter to a half above the control carry no call in these data; other NCI protocols may use other cut-offs.
System: L1210 leukemia ip in BDF1 mice, survival T/C
Assay: NCI In Vivo Anticancer Drug Screen. Data for tumor model L1210 Leukemia (intraperitoneal) in B6D2F1 (BDF1) mice
Settings: higher T/C = longer survival
[1] = T/C endpoint: mean survival time, dose: 400.0 mg/kg/injection, schedule: Q04DX003 (ip), vehicle: saline
[2] = T/C endpoint: mean survival time, dose: 400.0 mg/kg/injection, schedule: Q04DX002 (ip), vehicle: Klucel (hydroxypropylcellulose) (HPC)
[3] = T/C endpoint: mean survival time, dose: 400.0 mg/kg/injection, schedule: Q01DX009 (ip), vehicle: saline with Tween-80
[4] = T/C endpoint: mean survival time, dose: 200.0 mg/kg/injection, schedule: Q04DX003 (ip), vehicle: saline with Tween-80
[5] = T/C endpoint: mean survival time, dose: 200.0 mg/kg/injection, schedule: Q01DX009 (ip), vehicle: saline with Tween-80
[6] = T/C endpoint: mean survival time, dose: 400.0 mg/kg/injection, schedule: Q04DX003 (ip), vehicle: saline with Tween-80
[7] = T/C endpoint: mean survival time, dose: 100.0 mg/kg/injection, schedule: Q04DX003 (ip), vehicle: saline with Tween-80
[8] = T/C endpoint: mean survival time, dose: 400.0 mg/kg/injection, schedule: Q01DX009 (ip), vehicle: saline
[9] = T/C endpoint: mean survival time, dose: 200.0 mg/kg/injection, schedule: Q04DX003 (ip), vehicle: saline
[10] = T/C endpoint: mean survival time, dose: 100.0 mg/kg/injection, schedule: Q01DX009 (ip), vehicle: saline with Tween-80

Which results are given for `CCN(CC)CCCC(C)Nc1ccnc(/C=C/c2ccc(Cl)cc2)c1` (stereo not drawn)?
survivor count (T/C endpoint: mean survival time, dose: 75.0 mg/kg/injection, schedule: Q01DX009 (ip), vehicle: Klucel (hydroxypropylcellulose) (HPC)): 3 of 6; survivor count (T/C endpoint: mean survival time, dose: 100.0 mg/kg/injection, schedule: Q01DX009 (ip), vehicle: saline): 1 of 6; survivor count (T/C endpoint: mean survival time, dose: 150.0 mg/kg/injection, schedule: Q01DX009 (ip), vehicle: Klucel (hydroxypropylcellulose) (HPC)): 0 of 6; survivor count (T/C endpoint: mean survival time, dose: 150.0 mg/kg/injection, schedule: Q04DX003 (ip), vehicle: saline): 5 of 6; survivor count (T/C endpoint: mean survival time, dose: 200.0 mg/kg/injection, schedule: Q04DX003 (ip), vehicle: Klucel (hydroxypropylcellulose) (HPC)): 1 of 6; survivor count (T/C endpoint: mean survival time, dose: 300.0 mg/kg/injection, schedule: Q01DX009 (ip), vehicle: Klucel (hydroxypropylcellulose) (HPC)): 0 of 6; survivor count (T/C endpoint: mean survival time, dose: 400.0 mg/kg/injection, schedule: Q04DX003 (ip), vehicle: Klucel (hydroxypropylcellulose) (HPC)): 0 of 6

Which survivor count [1] does the source give for `C=CCNCC1OC(OC)C2OC(C)(C)OC12` (stereo not drawn) here?
The survivor count was 0 of 6.

With `O=C1OI(Cl)c2ccccc21` as the compound, how does the survivor count [2] read?
The survivor count was 2 of 3.

How did the T/C (T/C endpoint: mean survival time, dose: 400.0 mg/kg/injection, schedule: Q01DX Z (ip), vehicle: carboxymethylcellulose (CMC)) turn out when `O=c1[nH]cc(O)c(=O)[nH]1` was run?
The T/C was 125 % of control.

What about the T/C (T/C endpoint: mean survival time, dose: 600.0 mg/kg/injection, schedule: Q01DX Z (ip), vehicle: carboxymethylcellulose (CMC)) of the same compound?
Its T/C is 125 % of control.

How did the survivor count (T/C endpoint: mean survival time, dose: 50.0 mg/kg/injection, schedule: Q01DX009 (ip), vehicle: Klucel (hydroxypropylcellulose) (HPC)) turn out when `FC(F)(F)c1cccc([PH+](c2cccc(C(F)(F)F)c2)c2cccc(C(F)(F)F)c2)c1.FC(F)(F)c1cccc([PH+](c2cccc(C(F)(F)F)c2)c2cccc(C(F)(F)F)c2)c1.[Cl][Hg][Cl]` was run?
The survivor count was 2 of 6.

And the survivor count (T/C endpoint: mean survival time, dose: 100.0 mg/kg/injection, schedule: Q01DX009 (ip), vehicle: Klucel (hydroxypropylcellulose) (HPC))?
The survivor count was 3 of 3.

And the survivor count (T/C endpoint: mean survival time, dose: 200.0 mg/kg/injection, schedule: Q01DX009 (ip), vehicle: Klucel (hydroxypropylcellulose) (HPC))?
The survivor count was 0 of 3.

For `O=c1ssc(Cl)c1Cl`, which survivor count (T/C endpoint: mean survival time, dose: 75.0 mg/kg/injection, schedule: Q01DX001 (ip), vehicle: other) is on record?
Its survivor count is 0 of 6.

What about the survivor count (T/C endpoint: mean survival time, dose: 150.0 mg/kg/injection, schedule: Q01DX001 (ip), vehicle: other) of the same compound?
Its survivor count is 0 of 6.

And the survivor count (T/C endpoint: mean survival time, dose: 300.0 mg/kg/injection, schedule: Q01DX001 (ip), vehicle: other)?
The survivor count was 0 of 6.

With `CCC(=O)N(CC)CC` as the compound, how does the survivor count (T/C endpoint: mean survival time, dose: 200.0 mg/kg/injection, schedule: Q01DX001 (ip), vehicle: saline) read?
Its survivor count is 4 of 4.

With `O=C(Cc1cccc2ccccc12)N/N=C/c1ccc(Cl)cc1Cl` as the compound, how does the survivor count [3] read?
The survivor count was 6 of 6.

With `CN(C)c1ccc(N=Nc2nccs2)cc1` as the compound, how does the survivor count [4] read?
Its survivor count is 6 of 6.

With `CC(=O)C(C)(CCC#N)CCC#N` as the compound, how does the survivor count [5] read?
Its survivor count is 2 of 6.

What about the survivor count [6] of the same compound?
The survivor count was 1 of 6.

`O=C(Cc1ccccc1)NCc1ccccc1` was tested. Which survivor count (T/C endpoint: mean survival time, dose: 100.0 mg/kg/injection, schedule: Q01DX001 (ip), vehicle: saline) did it give?
Its survivor count is 1 of 3.

And the survivor count (T/C endpoint: mean survival time, dose: 400.0 mg/kg/injection, schedule: Q01DX001 (ip), vehicle: saline)?
Its survivor count is 0 of 3.

For `CCCCCCCCC(=O)N(C)CCO`, which survivor count [7] is on record?
Its survivor count is 6 of 6.

What about the survivor count [6] of the same compound?
Its survivor count is 1 of 6.

What about the survivor count [1] of the same compound?
Its survivor count is 3 of 6.

With `CCNCC(=O)N(N=O)C(=O)OCC` as the compound, how does the survivor count (T/C endpoint: mean survival time, dose: 300.0 mg/kg/injection, schedule: Q01DX001 (ip), vehicle: steroid suspending solution) read?
The survivor count was 6 of 6.

How did the survivor count (T/C endpoint: mean survival time, dose: 150.0 mg/kg/injection, schedule: Q01DX001 (ip), vehicle: carboxymethylcellulose (CMC)) turn out when `COc1ccc2nc3cc(Cl)ccc3c(Nc3ccc(O)c(CNCCO)c3)c2c1` was run?
Its survivor count is 1 of 6.

What about the survivor count (T/C endpoint: mean survival time, dose: 300.0 mg/kg/injection, schedule: Q01DX001 (ip), vehicle: carboxymethylcellulose (CMC)) of the same compound?
Its survivor count is 0 of 6.

For `N#CSCC(=O)c1ccc(Cl)cc1`, which survivor count (T/C endpoint: mean survival time, dose: 400.0 mg/kg/injection, schedule: Q01DX001 (ip), vehicle: carboxymethylcellulose (CMC)) is on record?
The survivor count was 1 of 4.

`NC(N)=NC(N)=Nc1ccc(S(=O)(=O)c2ccc(N=C(N)N=C(N)N)cc2)cc1` was tested. Which survivor count [3] did it give?
The survivor count was 5 of 6.

For `O=C(C(F)(F)F)C(F)(F)F`, which survivor count (T/C endpoint: mean survival time, dose: 200.0 mg/kg/injection, schedule: Q01DX009 (ip), vehicle: saline) is on record?
The survivor count was 0 of 6.

And the survivor count [8]?
Its survivor count is 0 of 6.

With `Cc1ccc(/C(=N\N=C(N)N)C2CC2)c(C)c1` as the compound, how does the survivor count (T/C endpoint: mean survival time, dose: 120.0 mg/kg/injection, schedule: Q01DX Z (ip), vehicle: methylcellulose (MC)) read?
Its survivor count is 0 of 6.

And the survivor count (T/C endpoint: mean survival time, dose: 120.0 mg/kg/injection, schedule: Q01DX Z (oral), vehicle: methylcellulose (MC))?
The survivor count was 5 of 6.

Which results are given for `CSc1ccc(NC(=O)Oc2ccccn2)cc1`?
survivor count [7]: 6 of 6; survivor count [3]: 2 of 3

Which survivor count (T/C endpoint: mean survival time, dose: 200.0 mg/kg/injection, schedule: Q01DX009 (ip), vehicle: water) does the source give for `CCN(CC)Cc1c(C)[nH]c2c(OC)cccc2c1=O` here?
Its survivor count is 0 of 6.

What about the survivor count (T/C endpoint: mean survival time, dose: 200.0 mg/kg/injection, schedule: Q04DX003 (ip), vehicle: water) of the same compound?
The survivor count was 2 of 6.

What about the survivor count (T/C endpoint: mean survival time, dose: 300.0 mg/kg/injection, schedule: Q01DX009 (ip), vehicle: water) of the same compound?
The survivor count was 0 of 6.

What about the survivor count (T/C endpoint: mean survival time, dose: 400.0 mg/kg/injection, schedule: Q04DX003 (ip), vehicle: water) of the same compound?
The survivor count was 0 of 6.

`CN(C(=O)NCCCl)C1CCC(C(=O)O)CC1` (stereo not drawn) was tested. Which survivor count (T/C endpoint: mean survival time, dose: 400.0 mg/kg/injection, schedule: Q01DX001 (ip), vehicle: Klucel (hydroxypropylcellulose) (HPC)) did it give?
The survivor count was 3 of 3.

Which survivor count [9] does the source give for `CN(C)Cc1c[nH]c2nccnc12` here?
Its survivor count is 3 of 6.

And the survivor count [8]?
Its survivor count is 0 of 6.

And the survivor count [1]?
The survivor count was 0 of 6.

For `CC(C)CCCC(C)C1CCC2C3CC=C4CC(O)CCC4(C)C3CCC12C` (stereo not drawn) (tested in a mixture with another compound), which survivor count (T/C endpoint: mean survival time, dose: 200.0 mg/kg/injection, schedule: Q01DX001 (ip), vehicle: water) is on record?
Its survivor count is 0 of 6.

What about the survivor count (T/C endpoint: mean survival time, dose: 400.0 mg/kg/injection, schedule: Q01DX001 (ip), vehicle: water) of the same compound?
The survivor count was 0 of 6.

Which results are given for `NC(CSS(=O)(=O)O)=NCCSc1ccccc1`?
survivor count (T/C endpoint: mean survival time, dose: 100.0 mg/kg/injection, schedule: Q04DX002 (ip), vehicle: Klucel (hydroxypropylcellulose) (HPC)): 0 of 3; survivor count (T/C endpoint: mean survival time, dose: 200.0 mg/kg/injection, schedule: Q04DX002 (ip), vehicle: Klucel (hydroxypropylcellulose) (HPC)): 0 of 3; survivor count [2]: 0 of 3

How did the survivor count [9] turn out when `Nc1nc(N)c2nc(CN3CCCc4cc(C(=O)NC(CCC(=O)O)C(=O)O)ccc43)cnc2n1` (stereo not drawn) was run?
Its survivor count is 6 of 6.

And the survivor count [1]?
The survivor count was 6 of 6.

What does the source list for `CSc1cc(-c2ccccc2)c2ccccc2[n+]1C`?
survivor count (T/C endpoint: mean survival time, dose: 50.0 mg/kg/injection, schedule: Q01DX009 (ip), vehicle: saline with Tween-80): 6 of 6; survivor count [10]: 0 of 6; survivor count [4]: 0 of 6; survivor count [6]: 2 of 6

How did the survivor count [5] turn out when `CCOc1ccn(CC(=O)c2ccc([N+](=O)[O-])o2)c(=O)n1` was run?
Its survivor count is 5 of 6.

And the survivor count [3]?
The survivor count was 0 of 6.

What about the survivor count [6] of the same compound?
The survivor count was 1 of 6.

How did the T/C (T/C endpoint: mean survival time, dose: 100.0 mg/kg/injection, schedule: Q04DX002 (ip), vehicle: saline with Tween-80) turn out when `CN(C)c1n[nH]c(N)n1` was run?
The T/C was 128 % of control.

What about the T/C (T/C endpoint: mean survival time, dose: 100.0 mg/kg/injection, schedule: Q04DX002 (ip), vehicle: saline) of the same compound?
Its T/C is 126 % of control.

Which survivor count (T/C endpoint: mean survival time, dose: 400.0 mg/kg/injection, schedule: Q01DX001 (ip), vehicle: other) does the source give for `N#CC(C#N)=Cc1ccc(Cl)cc1` here?
The survivor count was 0 of 4.

What does the source list for `COC(=O)c1cccc(N=NN(C)C)c1`?
T/C (T/C endpoint: median survival time, dose: 39.0 mg/kg/injection, schedule: Q01DX009 (ip), vehicle: steroid suspending solution): 130 % of control; T/C (T/C endpoint: median survival time, dose: 65.0 mg/kg/injection, schedule: Q01DX009 (ip), vehicle: steroid suspending solution): 130 % of control; survivor count (T/C endpoint: median survival time, dose: 108.0 mg/kg/injection, schedule: Q01DX009 (ip), vehicle: steroid suspending solution): 8 of 8; T/C (T/C endpoint: median survival time, dose: 180.0 mg/kg/injection, schedule: Q04DX003 (ip), vehicle: steroid suspending solution): 125 % of control; survivor count (T/C endpoint: median survival time, dose: 500.0 mg/kg/injection, schedule: Q01DX001 (ip), vehicle: steroid suspending solution): 5 of 8

Which results are given for `CCCCCCCCCCCCCCCC(=O)N(CCCN)C(C)CCCN(CC)CC` (stereo not drawn)?
survivor count [10]: 0 of 6; survivor count [5]: 1 of 6; survivor count [3]: 1 of 6

Which survivor count [4] does the source give for `CC1CCC(=C(c2ccccc2)c2ccccc2)C(C)N1C` (stereo not drawn) here?
The survivor count was 6 of 6.

And the survivor count [6]?
The survivor count was 0 of 6.
